These are yes or no findings as the source states them, for the method shown. In cells and extracts the contact can be indirect. Some binding calls cover weakened binding; strength is not graded here.
Legend:
[1] = target: Nedd4 like E3 ubiquitin protein ligase (NEDD4L), endogenous in Hepa1-6 cells (mouse (endogenous in Hepa1-6)) (UniProt Q8CFI0); experiment: co-IP; Hepa1-6 cells transfected to overexpress Txnip for 24 h, then 5 μM MG132 for 4 h; lysates immunoprecipitated with NEDD4L antibody or control IgG, immunoblot
[2] = target: CCAAT/enhancer-binding protein homologous protein (CHOP), wild type, overexpressed from plasmid Chop-6x his (mouse) (UniProt P35639); experiment: co-IP; Hepa1-6 cells transfected with Txnip and Chop constructs (wild type or truncations; 5 μM MG132 for 4 h in Figure 6B); lysates immunoprecipitated with CHOP antibody or control IgG, blot with anti-TXNIP, anti-V5 or anti-CHOP
[3] = target: CHOP ΔN36 truncation (lacking the first 36 amino acids, α-helix domain deletion) (mouse) (UniProt P35639); experiment: as above
[4] = target: CHOP, endogenous in GAN diet NASH mouse liver (mouse (endogenous in liver)) (UniProt P35639); experiment: co-IP; GAN diet NASH mouse liver, endogenous proteins; precipitating antibody not stated

By UniProt entry, the sequences of proteins in these tests, tags left out. Where a name states a change or a piece, a line headed by the entry shows the natural chain unless it says otherwise. Residues count along the entry.
UniProt Q8CFI0: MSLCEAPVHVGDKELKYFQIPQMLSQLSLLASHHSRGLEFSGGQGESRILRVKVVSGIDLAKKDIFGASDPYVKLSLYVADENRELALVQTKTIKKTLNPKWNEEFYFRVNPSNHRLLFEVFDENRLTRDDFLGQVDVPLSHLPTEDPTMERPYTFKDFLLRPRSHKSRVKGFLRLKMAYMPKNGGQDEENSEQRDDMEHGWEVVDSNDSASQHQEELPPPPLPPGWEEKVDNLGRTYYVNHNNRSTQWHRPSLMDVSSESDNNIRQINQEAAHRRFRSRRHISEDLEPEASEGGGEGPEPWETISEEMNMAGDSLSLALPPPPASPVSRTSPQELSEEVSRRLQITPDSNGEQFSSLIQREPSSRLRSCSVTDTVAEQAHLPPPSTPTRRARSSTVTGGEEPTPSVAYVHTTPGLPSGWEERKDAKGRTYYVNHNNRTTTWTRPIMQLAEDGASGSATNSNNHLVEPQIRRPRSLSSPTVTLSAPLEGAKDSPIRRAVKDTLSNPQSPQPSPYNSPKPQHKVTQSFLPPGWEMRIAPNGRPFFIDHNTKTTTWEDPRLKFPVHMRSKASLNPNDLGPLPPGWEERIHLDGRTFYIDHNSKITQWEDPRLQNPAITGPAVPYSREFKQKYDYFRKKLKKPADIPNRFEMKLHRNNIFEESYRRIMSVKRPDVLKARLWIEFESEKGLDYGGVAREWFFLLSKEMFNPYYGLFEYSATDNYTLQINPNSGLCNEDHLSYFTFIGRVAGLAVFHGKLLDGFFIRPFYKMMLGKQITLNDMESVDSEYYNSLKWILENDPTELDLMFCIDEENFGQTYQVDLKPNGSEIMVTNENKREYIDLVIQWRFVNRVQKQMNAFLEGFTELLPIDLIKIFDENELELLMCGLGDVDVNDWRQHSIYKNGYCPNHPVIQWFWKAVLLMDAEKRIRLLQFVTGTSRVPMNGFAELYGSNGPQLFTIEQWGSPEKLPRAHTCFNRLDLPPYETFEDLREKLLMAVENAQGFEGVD
UniProt P35639: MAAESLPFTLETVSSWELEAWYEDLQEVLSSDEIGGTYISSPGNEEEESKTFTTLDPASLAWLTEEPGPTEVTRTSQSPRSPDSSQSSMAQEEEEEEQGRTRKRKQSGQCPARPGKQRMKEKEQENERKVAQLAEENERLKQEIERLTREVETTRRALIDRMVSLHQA
CHOP ΔN36 truncation (lacking the first 36 amino acids, α-helix domain deletion): residues 37-168 of P35639

Row | binding [1] | binding [2] | binding [3] | binding [4] | Binder
1 | binds | binds | no binding | – | Thioredoxin interacting protein (TXNIP), wild type, overexpressed from plasmid Txnip (protein, UniProt Q8BG60 1-397) MVMFKKIKSFEVVFNDPEKVYGSGEKVAGRVIVEVCEVTRVKAVRILACGVAKVLWMQGSQQCKQTLDYLRYEDTLLLEEQPTAGENEMVIMRPGNKYEYKFGFELPQGPLGTSFKGKYGCVDYWVKAFLDRPSQPTQEAKKNFEVMDLVDVNTPDLMAPVSAKKEKKVSCMFIPDGRVSVSARIDRKGFCEGDDISIHADFENTCSRIVVPKAAIVARHTYLANGQTKVFTQKLSSVRGNHIISGTCASWRGKSLRVQKIRPSILGCNILKVEYSLLIYVSVPGSKKVILDLPLVIGSRSGLSSRTSSMASRTSSEMSWIDLNIPDTPEAPPCYMDIIPEDHRLESPTTPLLDDVDDSQDSPIFMYAPEFQFMPPPTYTEVDPCVLNNNNNNNNVQ
2 | – | – | – | binds | TXNIP, endogenous in GAN diet NASH mouse liver (protein, UniProt Q8BG60 1-397) MVMFKKIKSFEVVFNDPEKVYGSGEKVAGRVIVEVCEVTRVKAVRILACGVAKVLWMQGSQQCKQTLDYLRYEDTLLLEEQPTAGENEMVIMRPGNKYEYKFGFELPQGPLGTSFKGKYGCVDYWVKAFLDRPSQPTQEAKKNFEVMDLVDVNTPDLMAPVSAKKEKKVSCMFIPDGRVSVSARIDRKGFCEGDDISIHADFENTCSRIVVPKAAIVARHTYLANGQTKVFTQKLSSVRGNHIISGTCASWRGKSLRVQKIRPSILGCNILKVEYSLLIYVSVPGSKKVILDLPLVIGSRSGLSSRTSSMASRTSSEMSWIDLNIPDTPEAPPCYMDIIPEDHRLESPTTPLLDDVDDSQDSPIFMYAPEFQFMPPPTYTEVDPCVLNNNNNNNNVQ

From article PMC10157740
